Results on 11 sequences are retold here after paper PMC12370185.

Holding throughout (details): 10 mM Tris-Cl pH 7.5, 50 mM NaCl, 1 mM DTT, 0.25 mg/ml BSA, 2 mM MgCl2, 0.025% Nonidet P-40, 5% glycerol; 28 nM nucleosome library; 10 min on ice then 30 min …; high values mean tight binding; double strand, one strand shown
The subject of one assay is KLF4 + histone octamer. The experiment in a line: EMSA with sequencing. A general note: In EMSA bound probe runs differently from free probe, usually more slowly.
The next assay concerns SOX2 + histone octamer. The experiment in a line: EMSA with sequencing.
Assay [1] deals with c-MYC + MAX + histone octamer. The experiment in a line: EMSA with sequencing.
In another assay the test system is OCT4 + histone octamer. The experiment in a line: Pioneer-seq (competitive nucleosome EMSA with sequencing).
The subject of assay [2] is c-MYC + MAX + histone octamer. The assay is described as above.

This is one part of the list. For some assays here: At the low end of the ranking the order means little.

Regarding “GATGGACCCTATACGCGGCAAAATGCTTATGTGTGAGGCTGGGCACAATGGCTCACACCTGTAATCTCAATGTTTCTGGAGGCCAAGGCAGAGGCCTCTTGAGGCCAGGAGTTCAAGACAAGCCTGGGCAAGACCCTGTCTCTACAAAATAAAAATAAAAATTAGCCGGGTTGGTGGTGTGCCTTGTAGTCCCAACTACTTAGGAGGCTGTGCCAGTCGGATAGTGTTCC”, the binding signal (log2 relative supershift) in the assay with KLF4 + histone octamer was 1.84; in the assay on SOX2 + histone octamer it was 0.564; in assay [1] it was 0.45; in the assay with OCT4 + histone octamer, -0.358.

For the sequence “GATGGACCCTATACGCGGCATATTTTTGAGTGACGGAGGGAGTGTAGCTCAGAGGTTAGGTGACGGGAACCAAGTCATATGGATGCGGACTGGACCTGGACCCAGGTCTGCCGCCTCCTGAGTCACATGCTCTCCAGCGCGCCCTGACACGTCTCCCCACATCCTGCCTGTCCTCATTGGCCATGCCCTGGGGGAATGCCTTTGTGGTTGTGCCAGTCGGATAGTGTTCC”, the binding signal (log2 relative supershift) is 2.15 in the assay on KLF4 + histone octamer, 0.579 in the assay on SOX2 + histone octamer, 0.0688 in assay [1] and -0.575 with OCT4 + histone octamer.

Take “GATGGACCCTATACGCGGCTCTATAGAAGGGTGCGCCCTTACAGATGGAACAATGGTGAGCACACACTTGGACAAGGGAGGGGAAGGAGTTCTTATCCCTGATGCACATGGACCCTGCTGCTGTGCCATTCCCCCATTGGCTAGGGTTAGACTGCACAGGCTAAAGTAATTCCAATTGGCTACTTTAAAGAGAATGACAGGGTGAGTGCTTGCCAGTCGGATAGTGTTCC”: the binding signal (log2 relative supershift) was 2.5 with KLF4 + histone octamer, 1.34 in the assay on SOX2 + histone octamer, -0.387 in the assay with OCT4 + histone octamer and -0.36 in assay [2].

In the case of “GATGGACCCTATACGCGGCTTATCCCCTGGGTGGGTGTCTAATAAGCTCAGCACACCTCTGGATATCCTTCCTCCAGTCCACCTGTTTTTATACTCCTGTGCTCTCCTGCCTTTTCAAATGCCACACTTGTTCCACAGCCTTATCTGCCTCTCCCTCACCACCTTCAACCTTTCCCTATCTCGTGGCTCCTTTCCAGCAACAATTGAACATGCCAGTCGGATAGTGTTCC”, the binding signal (log2 relative supershift) with KLF4 + histone octamer is 2.28; with SOX2 + histone octamer it was 0.905; in assay [1], 0.811; with OCT4 + histone octamer it was -0.0921.

Take “GATGGACCCTATACGCGGCTCCTACAATCAGTGTGAACATGGGCAACTCAGAAAATTTCTAATTAATTCATCAAATACCTTTTAAGGACCTATTGCGTCTAAGGTTCTGTGCTAGGCTGTAAGGCTCAATGTCTTACATTGTAATGCAGGGACAATACCAACTATGGCAGAGAGTTGTGATGATCAAAGTGGGCAAAGATTACAGATTATTGCCAGTCGGATAGTGTTCC”: the binding signal (log2 relative supershift) in the assay on KLF4 + histone octamer was 0.812; in the assay with SOX2 + histone octamer, 0.214; in the assay with OCT4 + histone octamer, -0.419; in assay [2], -0.191.

On to “GATGGACCCTATACGCGGCTGTGATGTCAGTTTGTATGTACGAGAACAGTGGGTGTGGGCAGTAAAGGGGTGGGATGAAATGAGCATCTGTGTGTGTGTTTGCGCATGTGCATCATGTGTACACACATATGCACACACATGCCTAGTATCTGCTCTCTCCTTATTCTAGATTACCCCTACCCCCTTTTATTAAAGACTCAAGAGGATCTTTGCCAGTCGGATAGTGTTCC”, for which the binding signal (log2 relative supershift) with KLF4 + histone octamer is 1.87; in the assay with SOX2 + histone octamer, 0.458; in the assay with OCT4 + histone octamer, -0.305; in assay [2], -0.136.

For “GATGGACCCTATACGCGGCGGAAAGCTTTGGCCAGTCAGCAAAGGCACGTTGGGACTTGCAGCATGTTGGCTGCATGTGAAGTTACATCCAGCCACAGTGAAGCGATCACTAAAAAGTTGAGTTCCTGGGAAACACGGTACACAGCATGAGGCGTCAGTAATGTGAGGAGTGTGTTCTTTAGAATGGTCAATAATGTTAGAATGATGGAGTGCCAGTCGGATAGTGTTCC”, the binding signal (log2 relative supershift) in the assay on KLF4 + histone octamer is 0.919; in the assay on SOX2 + histone octamer, 0.844; in assay [1], 0.904; in the assay with OCT4 + histone octamer, -0.176.

Take “GATGGACCCTATACGCGGCAACCAGGGGGAGGGCATGGCACTTCCCAAGGCTATGCACCTGAATATGGGGTGTGTGTGTATGTGTGTGTGTGTGTGTGCACAGCTCAAGGCAATTCCACCCACAATTCAAGGAATATGGAGGCTGACAGACAAAGCTTGGATTTCAGATGTAAATAAAACTAGAGTTAATAAAAATGTTTACTGCAGTGCTGCCAGTCGGATAGTGTTCC”: the binding signal (log2 relative supershift) is 0.874 with KLF4 + histone octamer, 0.348 in the assay with SOX2 + histone octamer, -0.216 in the assay with OCT4 + histone octamer and -0.0269 in assay [2].

For “GATGGACCCTATACGCGGCGTGGCTAGTGGGAGGGGGCATCTCTGTGAGGCATGTTTATGAAAAGGCAGTGCAGGCCTGGGCCTGTCCTCAGCACTGGCCCTTGTCAAGGCCTGTTTCCTTGAGCCTGGAGTCCTTTGGGAGCTGTGAGAACCAAAAGAGAAACGGCACACCTGTACATTTACTCATCCTTTTAATTTAGGCAAGGATTCTGCCAGTCGGATAGTGTTCC”, the binding signal (log2 relative supershift) with KLF4 + histone octamer is 2.57; in the assay with SOX2 + histone octamer, 0.306; in assay [1], 0.168; in the assay on OCT4 + histone octamer, -0.0469.

For the sequence “GATGGACCCTATACGCGGCTCACACACCCATCCTAACATTGTCAAATGTGTCACACACCCACCTTACCATTGTCATCTATCCCACCATTGTCAAGTGTGTCATGCACCCATCCTACCATTGTCACCCATCATACCATTGTCAAGCAACTGTTTAACAATGAAAAGATTTATAAGATGGAAATAGATTATCAGATGGATTTAAGGCCTTGATGCCAGTCGGATAGTGTTCC”, the binding signal (log2 relative supershift) was 1.99 in the assay with KLF4 + histone octamer, 0.0608 with SOX2 + histone octamer, -0.391 with OCT4 + histone octamer and -0.716 in assay [2].

Take “GATGGACCCTATACGCGGCCGCAGAAAGTGTACGCGTCAGAGAGTGGAAAGGAGAAAACAGGTTCTGGGACGGCGACAGAGAAGGGAAGTCGTGTCGCCCAGAAAGGCTATACAATCTCCACCCTTCCCGTTTGTCCCTGCGACACCCTTTCACCCTCCTGTCCCTCCGGACCTGCAATTCTTCACACCCTCTGCAGCGCACAGGGTGCTTGCCAGTCGGATAGTGTTCC”: the binding signal (log2 relative supershift) in the assay with KLF4 + histone octamer was 1.28; in the assay with SOX2 + histone octamer it was 0.35; in assay [1] it was 0.197; with OCT4 + histone octamer it was -0.169.
